Laboratory results taken from publication PMC3121763.
The exact form of at least one protein or probe is not confirmed. The comparison behind a weaker result is the experiment's own reference, which may not be listed here. Where a protein sequence is shown, tags need not be part of it.

System: T1, GtgR (Gifsy-2 phage repressor + also written GftR) (Salmonella enterica ATCC14028, Gifsy-2 prophage)
T1 sequence (looked up, limits assumed): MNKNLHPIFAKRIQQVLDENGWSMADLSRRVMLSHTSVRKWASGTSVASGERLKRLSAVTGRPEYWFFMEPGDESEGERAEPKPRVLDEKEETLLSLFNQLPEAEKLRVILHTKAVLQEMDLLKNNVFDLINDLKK
Test: EMSA
Details: GftA antirepressor (~0.01-10 pmol) added to preformed complex, operator progressively released; 20 mM Tris-HCl pH 7.5, 50 mM NaCl, 0.2 mM EDTA (5x stock in Methods: 1 mM), 1 mM MgCl2, 5% glycerol, PMSF, 50 ug/mL sonicated salmon sperm DNA; room temperature; recombinant protein; protein details: N-terminal 6xHis; label: 32P 5' end (T4 PNK); probe letters rebuilt from the primers and the genome

Question: Does “GTTCGCCGATGCTCATTTGAGTCATGTGGTTACTGATTTTGATTTTTAATTGGTTGTCCATTTGGCTCTCCAGTTCTACGAGTTGGTAGCTGGAGATTATCACGTAAAACTTTAGGTTCCAACAAAAATCAATCTAATAGTTCCAATGAATAAAGAAACTGAAGGTTGTAAAATGTGAATATGAACAAAAATCTTCATCCCATTTTCGCCAAGCGTATCCAGCAAGTTCTGGATGAGAACGGCTGGTCTATGGCTGACCTCTCACGG (double strand) [Gifsy-2 right operator fragment (267 bp)]” bind?
Answer: binds more weakly
